Results are given in words; binding and its absence hold for the method and conditions named. Binding seen in cells or lysates may run through a third protein. Some entries that bind do so weakly or less than the wild type.
Tests used:
[1] = biological target: HDAC6 (HEK-293T exogenous expression system) (UniProt Q9UBN7); assay: co-IP; HEK-293T exogenous expression system; with WA (p53-E6AP) or RIC (p53-HDAC6); bait and tags not told
[2] = biological target: histone deacetylase 6 (HDAC6) (human (endogenous in cervical cancer cells)) (UniProt Q9UBN7); assay: co-IP; co-IP from cervical cancer cells followed by western blot; cells treated with or without WA (p53-E6AP) or RIC (p53-HDAC6); bait not told

The chains behind the UniProt entries cited, without tags or fusion partners.
UniProt Q9UBN7: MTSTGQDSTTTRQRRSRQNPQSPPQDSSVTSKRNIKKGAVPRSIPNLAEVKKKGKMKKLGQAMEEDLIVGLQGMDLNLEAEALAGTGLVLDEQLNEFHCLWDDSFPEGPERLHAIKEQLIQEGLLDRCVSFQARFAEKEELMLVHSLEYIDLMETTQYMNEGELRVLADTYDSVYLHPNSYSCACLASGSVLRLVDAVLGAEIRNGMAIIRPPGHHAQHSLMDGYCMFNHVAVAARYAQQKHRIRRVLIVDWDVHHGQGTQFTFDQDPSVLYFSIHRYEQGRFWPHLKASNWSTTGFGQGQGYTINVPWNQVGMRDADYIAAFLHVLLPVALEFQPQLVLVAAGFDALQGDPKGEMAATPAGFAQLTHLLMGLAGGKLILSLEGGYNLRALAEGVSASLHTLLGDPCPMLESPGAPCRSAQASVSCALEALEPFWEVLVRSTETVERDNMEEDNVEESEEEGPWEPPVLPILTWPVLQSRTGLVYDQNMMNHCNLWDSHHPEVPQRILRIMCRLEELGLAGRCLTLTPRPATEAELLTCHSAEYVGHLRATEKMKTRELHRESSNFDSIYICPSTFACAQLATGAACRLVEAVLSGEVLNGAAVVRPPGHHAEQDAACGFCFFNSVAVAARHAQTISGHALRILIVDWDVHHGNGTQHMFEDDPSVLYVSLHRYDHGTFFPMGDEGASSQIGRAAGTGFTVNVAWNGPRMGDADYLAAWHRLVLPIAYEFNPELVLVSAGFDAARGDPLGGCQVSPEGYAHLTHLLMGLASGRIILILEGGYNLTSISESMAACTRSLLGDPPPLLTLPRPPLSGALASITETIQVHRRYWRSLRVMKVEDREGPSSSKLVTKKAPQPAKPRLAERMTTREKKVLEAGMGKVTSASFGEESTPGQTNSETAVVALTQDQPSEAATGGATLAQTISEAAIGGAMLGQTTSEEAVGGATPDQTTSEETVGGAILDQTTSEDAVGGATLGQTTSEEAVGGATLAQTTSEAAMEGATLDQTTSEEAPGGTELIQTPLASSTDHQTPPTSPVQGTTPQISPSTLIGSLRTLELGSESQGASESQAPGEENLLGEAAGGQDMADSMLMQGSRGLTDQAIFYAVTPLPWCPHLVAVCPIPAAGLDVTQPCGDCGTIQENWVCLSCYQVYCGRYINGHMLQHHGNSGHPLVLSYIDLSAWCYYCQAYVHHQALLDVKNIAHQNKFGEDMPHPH

| binding [1] | binding [2] | Substance |
| --- | --- | --- |
| binds | – | p53 (HEK-293T exogenous expression system) (from UniProt P04637 1-393) |
| – | binds | p53 (from UniProt P04637 1-393) |

— article PMC12747991
